{"source": "PubChem BioAssay AID1347423", "about": "(Functional Genomics Laboratory (NCATS/FGL), 2020)", "note": "Out of some 52,000 sequences screened, about 210 (0.4%) were called active.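 How the source made its calls: active means gene whose silencing raises cell survival under the drug, median off-target-corrected z-score across its silencing RNAs 2 or more; inactive means the rest.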 This is one part of the list.", "data": [{"assay": "Resistance to Poly (ADP-Ribose) Polymerase inhibitor: Gene Identification via Genome-wide siRNA Screen", "conditions": "mouse BRCA2 R2336H ES cells, olaparib, CellTiter-Glo viability; active compounds read high", "how_it_was_run": "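Mouse BRCA2 R2336H ES cells were reverse-transfected with siRNA (20 nM final), treated at 48 h with 500 nM olaparib, and read by CellTiter-Glo after 72 h. Scores: MAD-based z per siRNA, median per gene, seed off-target correction.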", "values": [{"sequence": "GCCGUUAUCUGGACUUUACTT against Zpbp2", "z-score": "inactive: -0.565"}, {"sequence": "GGGAAAUUUCUCUACAUCUTT against Npas1", "z-score": "inactive: 3.06"}, {"sequence": "GGCUUCAUGAGUAGGAUUATT against Olfr943", "z-score": "inactive: 1.42"}, {"sequence": "GCAACUUGACAUAUGACAGTT against 1700029G01Rik", "z-score": "inactive: 0.461"}, {"sequence": "GGACCACUACAUCAUAUACTT against Lcn4", "z-score": "inactive: 0.276"}, {"sequence": "GGACAUCCAUUCAAGGCCUTT against Rtn3", "z-score": "inactive: 1.05"}, {"sequence": "CCCUGGGUUCUGAUCUUAATT against Cd207", "z-score": "inactive: -1.95"}, {"sequence": "CCUUAAACCUCAGCUAAUGTT against 4932411L21Rik", "z-score": "inactive: -0.335"}, {"sequence": "GGAAGAAGAGAAGUUACAGTT against 5133400G04Rik", "z-score": "inactive: -0.254"}, {"sequence": "GGCAAACAUGAAUCUUACCTT against Pscd4", "z-score": "inactive: 0.959"}, {"sequence": "GGUUGAACGAAGGGAAAAATT against 2600016B03Rik", "z-score": "inactive: -2.18"}, {"sequence": "CGGCUCACUAGGAUUAUACTT against 4922503E23Rik", "z-score": "inactive: -1.63"}, {"sequence": "GACUUCGGACAAAUGGUGCTT against 1110055J05Rik", "z-score": "inactive: 0.89"}, {"sequence": "GCCUUAUAGGGAGAUCUUUTT against Tsnaxip1", "z-score": "inactive: -0.998"}, {"sequence": "GCUAUACGUGGUUUCCUCCTT against Gpr110", "z-score": "inactive: -1.62"}, {"sequence": "GCCAGAAAUACCUGUCGGATT against Cdc37", "z-score": "inactive: -1.89"}, {"sequence": "GGGCAAAAUAGAAGUGAAUTT against 6330500D04Rik", "z-score": "inactive: -1.01"}, {"sequence": "GGCCUUGAAAUCGUUUUUUTT against 3930402F23Rik", "z-score": "inactive: 1.03"}, {"sequence": "GGUUUACACUGACUAUGUGTT against Cdkl2", "z-score": "inactive: 0.312"}, {"sequence": "GCUAGUGCGCAUGUUUCUCTT against Rasgrp2", "z-score": "inactive: 0.0428"}, {"sequence": "GCGUGGAUAGUUUCACAGCTT against Fbp1", "z-score": "inactive: 0.282"}, {"sequence": "GCCUUCUUGAACUGAAAGATT against 2410030K01Rik", "z-score": "inactive: -1.3"}, {"sequence": "GGAGUAUCUAUGCUCAAUATT against Olfr794", "z-score": "inactive: -0.338"}, {"sequence": "GGUCUUGUAGAAAUUUGCCTT against Slc25a21", "z-score": "inactive: 0.496"}, {"sequence": "GGAGAAAGAAUUCAUUUCCTT against Dnchc1", "z-score": "inactive: 0.548"}, {"sequence": "GGUGUGAGGUAAUUUCAGATT against Snx22", "z-score": "inactive: -0.782"}, {"sequence": "CCUCUCCAACAACCAACUATT against 2900010D03Rik", "z-score": "inactive: -1.42"}, {"sequence": "GACAGCAUGAAGGACCUCUTT against Il17c", "z-score": "inactive: -0.106"}, {"sequence": "GGAAGGCAAAUUCAAAUACTT against Serpinc1", "z-score": "inactive: 0.706"}, {"sequence": "GGCGCAUCGUGGACUUCUUTT against Slc36a1", "z-score": "inactive: -0.821"}, {"sequence": "GGCGAAAUGAACACAAAGCTT against Edf1", "z-score": "inactive: 0.917"}, {"sequence": "GGCUUUUUCCUCUACCCACTT against Trhde", "z-score": "inactive: 0.762"}, {"sequence": "GUAGCAGAGGCUUCACUAUTT against 4733401H18Rik", "z-score": "inactive: -0.828"}, {"sequence": "CCCAGAAUUAAACAUAGCUTT against Rrh", "z-score": "inactive: 1.2"}, {"sequence": "GGUUGGCAAUAAGUAUUACTT against Lpin1", "z-score": "inactive: 0.303"}, {"sequence": "GCAUUGCUAUUCAACUCCUTT against Marcks", "z-score": "inactive: -0.225"}, {"sequence": "GUUCCUGAGUACCUAUGUCTT against Aqp7", "z-score": "inactive: 0.243"}, {"sequence": "UGAAUCACCACCCGGAAUGTT against 2700061N24Rik", "z-score": "inactive: 0.597"}, {"sequence": "GCACAUGUUCCUUACUUAUTT against Calcr", "z-score": "inactive: 0.839"}, {"sequence": "GGACAUCACAGCAUAUCGUTT against Peli2", "z-score": "inactive: 0.6"}, {"sequence": "CCCUGAACAGGUCAUCUGUTT against Ctps2", "z-score": "inactive: 1.06"}, {"sequence": "CCAACGUGCAGAAAUGUCUTT against Metrn", "z-score": "inactive: 0.671"}, {"sequence": "GCGUAAUGCUAGGAGAAGCTT against Celsr3", "z-score": "inactive: 1.06"}, {"sequence": "GGAAGUCAAGAAGAAACCGTT against Zcwcc2", "z-score": "inactive: -0.265"}, {"sequence": "CCCGGUAUUAAAUUUAAUGTT against Aox4", "z-score": "inactive: 0.0496"}, {"sequence": "GCAGUUAUUCUGAAAGCAATT against Olfr1386", "z-score": "inactive: -0.496"}, {"sequence": "GGGACAAAAGCAAUCAAACTT against H2-M11", "z-score": "inactive: -1.11"}, {"sequence": "GGAGCUCGUUGACAAGAAGTT against BC018465", "z-score": "inactive: -0.378"}, {"sequence": "GGACCACUAUAUCUUAACUTT against Cdh23", "z-score": "inactive: -0.374"}, {"sequence": "GCAAAUAGUUGGGUAGGAGTT against Taz", "z-score": "inactive: 1.29"}, {"sequence": "CCCACUUCUAUUGAGUCUGTT against Ppif", "z-score": "inactive: -0.818"}, {"sequence": "GGAGAGAAAGGAAAGACCGTT against 5033406L14Rik", "z-score": "inactive: 0.634"}, {"sequence": "GGAAGUCACGCUGAACAAATT against 2610040C18Rik", "z-score": "inactive: 0.297"}, {"sequence": "CCUAGCCAUGUGGUCAUAGTT against Tex264", "z-score": "inactive: -0.768"}, {"sequence": "GGUCCUGAUGAAGUUGUAGTT against 4833420K19Rik", "z-score": "inactive: -0.842"}, {"sequence": "GCCUACAUCAUGUAAUAUATT against Cyp2s1", "z-score": "inactive: -1.02"}, {"sequence": "GGAAUUCUACCUGAAAAUCTT against 1110018G07Rik", "z-score": "inactive: 1.01"}, {"sequence": "CGUAGAGCUUCUCAUAUUATT against Olfr1436", "z-score": "inactive: -0.774"}, {"sequence": "CCAUUUGACGAAGGUAAUATT against Olfr180", "z-score": "inactive: 0.865"}, {"sequence": "CGAAGAAGAAAUCUUUGGATT against Opn5", "z-score": "inactive: 0.527"}, {"sequence": "GGGAGAAGUUCUGUAUAUUTT against Prdm5", "z-score": "inactive: 3.76"}, {"sequence": "CCAUCUAUGUGAGGUAUUATT against Tapbpl", "z-score": "inactive: -1.02"}, {"sequence": "GGCAUUUACUUACUGUUCATT against Slc39a10", "z-score": "inactive: -0.293"}, {"sequence": "GCCUAUAACUUCAAGUAUCTT against Xab1", "z-score": "inactive: -0.0258"}, {"sequence": "GGGAGAAGCGAGCAAUAGATT against Pla2g3", "z-score": "inactive: 0.55"}, {"sequence": "CGUUGCAGUCUAAGCUUGUTT against Rabac1", "z-score": "inactive: 0.0786"}, {"sequence": "GGCGUGUUGAGACAAUCCUTT against 4930526D03Rik", "z-score": "inactive: -0.988"}, {"sequence": "GCAGUCAUCAAGGAUCAUUTT against Ncb5or", "z-score": "inactive: -1.19"}, {"sequence": "GCACAAUUGCUCUAGGAUGTT against Slitrk3", "z-score": "inactive: 0.521"}, {"sequence": "GGGAUACGACUAAACUAUUTT against Gucy1a3", "z-score": "inactive: -0.0594"}, {"sequence": "CGUACUCUAUGAGGUGCCATT against Rab6ip1", "z-score": "inactive: 0.703"}, {"sequence": "CGUGCAAGAAUGUAUUAGATT against Myo5a", "z-score": "inactive: 0.949"}, {"sequence": "GGACCUUCAGGAAAUGGCUTT against Mrps14", "z-score": "inactive: 0.374"}, {"sequence": "CAUAUUCCUUGCAUUACAATT against A130052D22", "z-score": "inactive: 0.111"}, {"sequence": "GGUAGACCAGGAUUCAAAGTT against B3galt2", "z-score": "inactive: 1.42"}, {"sequence": "GGAUGAGAAAGAAAAGCACTT against Mettl1", "z-score": "inactive: -0.032"}, {"sequence": "GCCUGAAAGGCCUCACAAATT against Tceb3", "z-score": "inactive: 1.4"}, {"sequence": "GGAUACUGUCAUGUCUUUATT against Olfr1", "z-score": "inactive: 0.615"}, {"sequence": "CCUUCUCAACAGCGUGAUUTT against Dhx30", "z-score": "inactive: 0.682"}, {"sequence": "GCUUGGUUUAACAAACAAGTT against Ppm1a", "z-score": "inactive: 1.14"}, {"sequence": "CCUCCAAGAAGGAUUCCAGTT against AI451006", "z-score": "inactive: -1.76"}, {"sequence": "GCAAGUCCACCAGACAACATT against Csh2", "z-score": "inactive: 0.235"}, {"sequence": "GGAUGGUCGAGUGUUUAUUTT against Sec13l1", "z-score": "inactive: -2.87"}, {"sequence": "GGACCACAUUACUAUACCATT against Sort1", "z-score": "inactive: 0.931"}, {"sequence": "GGAGUUCAAGCAGAACAUUTT against Tpd52", "z-score": "inactive: -2.09"}, {"sequence": "GCUAGAUGCAAAAUAUUCATT against Lbr", "z-score": "inactive: 0.41"}, {"sequence": "GGCUAUGUUAAUUUGUCCCTT against Hc", "z-score": "inactive: 0.847"}, {"sequence": "GCCUGACGGCACGUAUGUATT against Acox1", "z-score": "inactive: 0.656"}, {"sequence": "GGGCUUUUUCAACAGAGGCTT against 2010107G23Rik", "z-score": "inactive: -0.274"}, {"sequence": "GCUGUUAUAACCUUGUUACTT against 4930470D19Rik", "z-score": "inactive: 1.22"}, {"sequence": "GCAGAGCGGGAUUUCAUUCTT against Sh3glb2", "z-score": "inactive: -1.34"}, {"sequence": "GGACAAGUGUCAGAUAUCATT against Asah2", "z-score": "inactive: 3.07"}, {"sequence": "GCAGAGCUCUGUUAAGAAGTT against Pbp2", "z-score": "inactive: 1.05"}, {"sequence": "GGCCUAUAGGUUGGGCUCUTT against 2810439M11Rik", "z-score": "inactive: -1.42"}, {"sequence": "GGUCUAUUCUGUUGAGUAATT against Glud1", "z-score": "inactive: 2.01"}, {"sequence": "GGAGCUGGAAGACACGAGATT against 4933409I22", "z-score": "inactive: -0.905"}, {"sequence": "GGUCCUGAAGAAAUCCGAUTT against Clybl", "z-score": "inactive: 2.54"}, {"sequence": "CAAGAUAACCAGGUUAAUCTT against 4930523C11Rik", "z-score": "inactive: -0.671"}, {"sequence": "GGAAUGGUCCCUCCAAUGATT against 2610317D23Rik", "z-score": "inactive: 0.515"}, {"sequence": "GGGUGCCUAGCAGAUGAACTT against 5830484A20Rik", "z-score": "inactive: -1.43"}, {"sequence": "GGGCUCCUUCCUUGAAAAGTT against Dclre1c", "z-score": "inactive: 0.338"}, {"sequence": "CCUUUACCGUAUCAGCGAGTT against Rassf6", "z-score": "inactive: -0.622"}, {"sequence": "GGUGGGAAGAGGAAUACACTT against A930037G23Rik", "z-score": "inactive: -0.536"}]}]}
